The target of experiment [1] is T1, GST-Nbr1 aa346-498 (FW domain, pGEX2T) (UniProt P97432).
T1 sequence: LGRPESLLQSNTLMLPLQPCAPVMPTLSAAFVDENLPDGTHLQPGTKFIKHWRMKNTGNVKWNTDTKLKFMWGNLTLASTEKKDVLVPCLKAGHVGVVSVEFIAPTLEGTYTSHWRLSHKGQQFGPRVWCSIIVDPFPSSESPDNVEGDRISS
Kind of experiment: pull-down; purified GST or GST-Nbr1 aa346-498 on glutathione agarose beads, incubated with purified His6-MAP1B aa2227-2464 in 50 mM Tris pH 7.5, 150 mM NaCl, 0.5% NP-40, 2 hours at 4°C; blot anti-His; both purified.

The chains behind the UniProt entries cited, without tags or fusion partners. Residues count along the entry.
MAP1B-LC1-myc (MAP1B aa2216-2464 in pcDNA3.1) (P14873, residues 2216-2464): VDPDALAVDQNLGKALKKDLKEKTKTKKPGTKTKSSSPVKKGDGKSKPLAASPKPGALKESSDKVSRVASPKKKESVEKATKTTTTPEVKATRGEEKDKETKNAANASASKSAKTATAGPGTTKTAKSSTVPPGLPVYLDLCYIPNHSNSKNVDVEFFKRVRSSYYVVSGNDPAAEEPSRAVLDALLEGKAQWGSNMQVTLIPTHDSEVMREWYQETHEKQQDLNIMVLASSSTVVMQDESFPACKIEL
His6-MAP1B aa2227-2464 (PET6H) (P14873, residues 2227-2464): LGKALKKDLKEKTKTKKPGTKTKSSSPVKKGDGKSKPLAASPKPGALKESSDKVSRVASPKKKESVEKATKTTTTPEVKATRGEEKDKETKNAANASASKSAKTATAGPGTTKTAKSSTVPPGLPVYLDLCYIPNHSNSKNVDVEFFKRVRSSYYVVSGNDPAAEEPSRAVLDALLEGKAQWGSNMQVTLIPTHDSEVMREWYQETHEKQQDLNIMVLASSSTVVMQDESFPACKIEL
MAP1B light chain (MAP1B-LC1) library clone aa2238-2465 in pGADT7 (P14873, residues 2238-2464): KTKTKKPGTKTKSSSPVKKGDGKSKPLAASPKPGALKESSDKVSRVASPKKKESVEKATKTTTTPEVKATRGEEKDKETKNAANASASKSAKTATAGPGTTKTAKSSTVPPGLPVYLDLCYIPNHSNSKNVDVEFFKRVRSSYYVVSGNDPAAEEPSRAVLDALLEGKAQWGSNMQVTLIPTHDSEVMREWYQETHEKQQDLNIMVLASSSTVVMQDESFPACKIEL

Experiment [2] has as its target T2, Nbr1 aa346-498 (FW domain) yeast two-hybrid bait in pGBKT7 (UniProt P97432).
T2 sequence: T1 sequence
Nature of the experiment: two-hybrid; directed retransformation and mating assay; growth on SD medium lacking leucine, tryptophan, histidine and adenine, 30°C.

Experiment [3] deals with T2, Nbr1 aa346-498 (FW domain) yeast two-hybrid bait in pGBKT7. Nature of the experiment: two-hybrid; library screen: Nbr1 aa346-498 bait in Y187 mated with a mouse neonatal calvarial cDNA library in AH109; HIS3 reporter gene activity, replated three times, inserts sequenced. For orientation: Reporter assays use an easily measured gene product as a stand-in for the process of interest.

The target of experiment [4] is T1, GST-Nbr1 aa346-498 (FW domain, pGEX2T). Kind of experiment: pull-down; GST-Nbr1 aa346-498 or GST alone on beads, incubated with lysate of COS7 cells transfected with MAP1B-myc, 2 hours at 4°C; washes 50 mM Tris pH 7.5, 200 mM NaCl, 0.5% NP-40; blot anti-myc; only the target purified.

Results are given in words; binding and its absence hold for the method and conditions named. For some of these results: In cells and extracts the contact can be indirect. Some binding calls cover weakened binding; strength is not graded here. For some of these results: Tags and fused reporters may be left off the sequences shown.

Take “His6-MAP1B aa2227-2464 (PET6H) (from UniProt P14873 2227-2464) (domain or fragment)”: the binding result in experiment [1] is recorded as “binds”. As to “MAP1B light chain (MAP1B-LC1) library clone aa2238-2465 in pGADT7 (from UniProt P14873 2238-2464) (domain or fragment)”, the binding result in experiment [2] and in experiment [3] was “binds” in each case. For the substance “MAP1B-LC1-myc (MAP1B aa2216-2464 in pcDNA3.1) (from UniProt P14873 2216-2464) (domain or fragment)”, the binding result in experiment [4] is listed as “binds”.
